# Values quoted from earlier work as cited in patent publication US4461765A, “Suppository containing sulfamethoxazole/trimethoprim complex and process for preparing the same” (Shionogi & Co., Ltd., priority 1979, dated 1984).
# Settings: co-trimoxazol SMX:TMP 5:1; oral or intravenous administration
structure (smiles),measurement,value
"Cc1cc(NS(=O)(=O)c2ccc(N)cc2)no1 [SMX, sulfamethoxazole]",minimum inhibition concentration in the blood level,12 µg/mL
